These are yes or no findings as the source states them, for the method shown. In cells and extracts the contact can be indirect. Some entries that bind do so weakly or less than the wild type.
Columns and labels:
[1] = target: hepatoma-derived growth factor 2 (HRP2), Flag-tagged (UniProt Q7Z4V5); assay: co-IP; HEK293T cells, IP lysis buffer; Flag antibody or control IgG overnight at 4°C, protein A/G magnetic beads; Western blotting
[2] = target: HRP2 in LP-1 cells (human (endogenous in LP-1)) (UniProt Q7Z4V5); assay: co-IP; LP-1 cells; Western blotting; bait antibody not told in the text shown

Chains of the proteins cited; added tags and fusions are not shown.
UniProt Q7Z4V5: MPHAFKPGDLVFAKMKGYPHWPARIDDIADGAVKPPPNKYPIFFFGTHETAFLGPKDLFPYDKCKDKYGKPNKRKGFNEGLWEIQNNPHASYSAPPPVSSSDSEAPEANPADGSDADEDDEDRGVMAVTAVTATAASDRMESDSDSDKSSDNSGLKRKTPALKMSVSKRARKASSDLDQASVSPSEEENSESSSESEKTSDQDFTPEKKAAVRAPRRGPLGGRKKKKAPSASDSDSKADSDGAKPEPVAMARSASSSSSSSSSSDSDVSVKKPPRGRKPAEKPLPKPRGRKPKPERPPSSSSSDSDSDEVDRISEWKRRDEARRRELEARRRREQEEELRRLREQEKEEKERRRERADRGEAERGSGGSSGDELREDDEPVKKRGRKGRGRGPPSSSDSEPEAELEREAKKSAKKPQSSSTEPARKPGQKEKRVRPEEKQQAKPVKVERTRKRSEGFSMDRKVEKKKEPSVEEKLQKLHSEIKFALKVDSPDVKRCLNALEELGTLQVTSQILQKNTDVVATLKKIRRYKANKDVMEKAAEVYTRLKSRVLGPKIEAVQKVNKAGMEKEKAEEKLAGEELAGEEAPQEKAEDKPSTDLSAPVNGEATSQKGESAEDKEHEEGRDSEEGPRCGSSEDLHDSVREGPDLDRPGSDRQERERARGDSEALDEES
UniProt Q8IUF8: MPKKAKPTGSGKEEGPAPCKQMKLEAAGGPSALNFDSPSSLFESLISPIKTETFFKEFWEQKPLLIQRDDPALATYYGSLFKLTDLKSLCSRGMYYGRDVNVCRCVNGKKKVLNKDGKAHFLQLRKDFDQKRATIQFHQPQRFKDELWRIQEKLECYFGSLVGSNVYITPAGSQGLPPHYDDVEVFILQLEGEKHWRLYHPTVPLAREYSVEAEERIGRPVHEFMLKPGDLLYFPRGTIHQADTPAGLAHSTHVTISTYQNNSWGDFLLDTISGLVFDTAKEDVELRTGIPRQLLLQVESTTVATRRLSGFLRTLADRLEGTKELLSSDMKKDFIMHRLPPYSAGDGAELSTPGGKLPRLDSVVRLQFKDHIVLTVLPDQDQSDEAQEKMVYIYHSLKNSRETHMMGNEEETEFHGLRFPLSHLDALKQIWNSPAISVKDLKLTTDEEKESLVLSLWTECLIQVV

Substance	binding [1]	binding [2]
Flag-MINA (from UniProt Q8IUF8 1-465)	binds	
MINA in LP-1 cells (from UniProt Q8IUF8 1-465)		binds
